# Test results: paper PMC6503760
# These are yes or no findings as the source states them, for the method shown.
# B1: Arabidopsis thaliana SOBIR1 ectodomain (residues 1–270) (domain or fragment, UniProt Q9SKB2 32-270)
# chain: VEWLDIDSSDLKALQVIETELGVNSQRSSASDVNPCGRRGVFCERRHSATTGEYVLRVTRLVYRSRSLTGTISPVIGMLSELKELTLSNNQLVNAVPVDILSCKQLEVLDLRKNRFSGQIPGNFSSLSRLRILDLSSNKLSGNLNFLKNLRNLENLSVANNLFSGKIPEQIVSFHNLRFFDFSGNRYLEGPAPVMSSIKLQTSPHQTRHILAETPTSSPTNKPNNSTTSKAPKGAPKPG
# modifications: N-glycosylated; N-glycan attached to Asn154
# B2: Arabidopsis thaliana SOBIR1 complete extracellular region (residues 1–283) (domain or fragment, UniProt Q9SKB2 32-283)
# chain: VEWLDIDSSDLKALQVIETELGVNSQRSSASDVNPCGRRGVFCERRHSATTGEYVLRVTRLVYRSRSLTGTISPVIGMLSELKELTLSNNQLVNAVPVDILSCKQLEVLDLRKNRFSGQIPGNFSSLSRLRILDLSSNKLSGNLNFLKNLRNLENLSVANNLFSGKIPEQIVSFHNLRFFDFSGNRYLEGPAPVMSSIKLQTSPHQTRHILAETPTSSPTNKPNNSTTSKAPKGAPKPGKLKKKKKKSKKKK
# Columns and labels:
# [1] = molecular target: Arabidopsis thaliana SOBIR1 ectodomain (residues 1–270) (Arabidopsis thaliana) (UniProt Q9SKB2); experiment: condition: 200 µg of protein in 100 µl (SEC); 100 µg of protein in 50 µl (RALS); SEC + other: SEC with right-angle light scattering (RALS); Superdex 200 Increase; 20 mM sodium citrate pH 5.0, 250 mM NaCl; RALS/RI detection at a column temperature of 35°C; oligomeric state of the ectodomain in solution; both purified
# [2] = molecular target: Arabidopsis thaliana SOBIR1 ectodomain (residues 1–270) (Arabidopsis thaliana) (UniProt Q9SKB2); experiment: crystal structure; hanging drops, 20 mg/ml protein in 20 mM sodium citrate pH 5.0, 150 mM NaCl; 25% PEG 3350, 1 M LiCl, 0.1 M sodium acetate pH 5.5; space group P6_(5), dimer in the asymmetric unit; 1.55 Å; both purified
# [3] = molecular target: Arabidopsis thaliana SOBIR1 complete extracellular region (residues 1–283) (Arabidopsis thaliana) (UniProt Q9SKB2); experiment: condition: 200 µg of protein in 100 µl (SEC); 100 µg of protein in 50 µl (RALS); SEC + other: SEC with right-angle light scattering (RALS); Superdex 200 Increase; 20 mM sodium citrate pH 5.0, 250 mM NaCl; RALS/RI detection at a column temperature of 35°C; oligomeric state of the ectodomain in solution; both purified
Binder,binding [1],binding [2],binding [3]
B1,no binding,no binding,
B2,,,no binding
